No constants are given. Whether binding was seen depends on the method and setting. In cells and extracts the contact can be indirect. Some entries that bind do so weakly or less than the wild type.

Sequences of proteins named here, by UniProt entry; tags and fusion partners are left off.
UniProt Q9NYD6: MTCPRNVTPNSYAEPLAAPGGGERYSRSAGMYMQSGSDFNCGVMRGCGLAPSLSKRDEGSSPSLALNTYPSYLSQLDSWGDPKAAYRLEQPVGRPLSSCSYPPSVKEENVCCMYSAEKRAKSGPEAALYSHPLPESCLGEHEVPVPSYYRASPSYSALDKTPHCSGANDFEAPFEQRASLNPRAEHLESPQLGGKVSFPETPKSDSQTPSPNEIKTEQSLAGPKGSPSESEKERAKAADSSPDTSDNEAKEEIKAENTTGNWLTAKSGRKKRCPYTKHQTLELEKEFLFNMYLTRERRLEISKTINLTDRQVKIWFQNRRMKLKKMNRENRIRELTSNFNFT

The source of these data is article PMC8777539.

For this test, the target named is T1, Slug (human (endogenous in A375 and A2058)) (UniProt O43623).
T1 sequence: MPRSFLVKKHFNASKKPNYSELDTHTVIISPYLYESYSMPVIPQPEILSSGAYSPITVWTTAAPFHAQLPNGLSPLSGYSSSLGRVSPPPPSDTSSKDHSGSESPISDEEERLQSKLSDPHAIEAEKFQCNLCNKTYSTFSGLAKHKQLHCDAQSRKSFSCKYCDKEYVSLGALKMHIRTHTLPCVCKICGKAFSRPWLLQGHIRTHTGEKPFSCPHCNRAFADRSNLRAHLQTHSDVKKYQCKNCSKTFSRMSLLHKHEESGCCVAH
Put plainly: co-IP; RIPA lysates of HOXC10-overexpressed A375 and A2058 cells; precipitated with anti-HOXC10 or anti-Slug antibody and Protein A/G Plus-Agarose; Western blot for HOXC10 and Slug.

With “Homeobox C10 (HOXC10) (from UniProt Q9NYD6 1-342)”, the binding entry is “binds”.
